The list is a part of this screen's results and no random one: it is rich in T/C values a quarter to a half above the control, in often repeated tests (any T/C) and in doses without a T/C. Other doses and runs of a compound stand elsewhere. T/C gives the treated animals as a percentage of the vehicle group. Some doses have a count of surviving animals in place of a T/C: the source holds a T/C of zero for them, seemingly a mark for toxic or unscored doses. Some doses without a T/C left all or most animals alive at the check, yet need not have been tolerated: the source hardly ever lists a survival T/C far under the control, and the zero likely stands for such cases as well. Counts of survivors are from the toxicity check (mostly the fifth day) where no day follows; animals may have died later. Schedules are NCI's codes, read here as Q, the interval in days (D) or hours (H), X, the number of doses. Some entries hold several experiments; the values are given in rising order. Some schedules carry Z or #; the key to these is not given. For survival time, the PubChem record calls one and a half times the control and up active, and a quarter to a half above the control has no call in these data; cut-offs in other NCI protocols can differ. Some T/C values are followed by the survivors on the day toxicity was checked, most often the fifth; where none is given, no animal had died by that day. Additions like (4×) say how often a value occurs here.
Test system: C57BL/6 mice, intracerebral ependymoblastoma, median survival T/C
Experiment: NCI In Vivo Anticancer Drug Screen. Data for tumor model Ependymoblastoma (intracerebral) in C57BL/6 mice
Details: T/C endpoint: median survival time, higher T/C = longer survival
Experimental: The antitumor activity of compounds was measured in mice bearing transplantable tumors. Survival or tumor size were measured and the results are expressed as the measurement made in the treated group (T) divided by the measurement made in the vehicle treated control group (C). The tumor model used in this assay is Ependymoblastoma (intracerebral) in C57BL/6 mice

[1] = dose: 256.0 mg/kg/injection, schedule: Q01DX001 (ip), vehicle: other
[2] = dose: 256.0 mg/kg/injection, schedule: Q## X006 (ip), vehicle: other
[3] = dose: 512.0 mg/kg/injection, schedule: Q01DX001 (ip), vehicle: other
[4] = dose: 32.0 mg/kg/injection, schedule: Q01DX005 (ip), vehicle: Klucel (hydroxypropylcellulose) (HPC)
[5] = dose: 64.0 mg/kg/injection, schedule: Q01DX005 (ip), vehicle: Klucel (hydroxypropylcellulose) (HPC)

CN(N=O)C(=O)N[C@@H](C=O)[C@@H](O)[C@H](O)[C@H](O)CO
T/C (dose: 32.0 mg/kg/injection, schedule: Q01DX001 (ip), vehicle: saline): 94, 96 [4 of 10 alive], 100, 109, 114 % of control [9 of 10 alive] | T/C (dose: 64.0 mg/kg/injection, schedule: Q01DX001 (ip), vehicle: other): 100, 106, 110 [7 of 10 alive], 112 % of control | T/C (dose: 64.0 mg/kg/injection, schedule: Q01DX001 (ip), vehicle: saline): 97 [4 of 9 alive], 103, 105, 114 [7 of 10 alive], 115 % of control | T/C (dose: 64.0 mg/kg/injection, schedule: Q01DX001 (oral), vehicle: saline): 94 [3 of 9 alive], 97, 98, 99, 99 % of control [6 of 10 alive] | T/C (dose: 64.0 mg/kg/injection, schedule: Q01DX005 (ip), vehicle: saline): 132 % of control | T/C (dose: 64.0 mg/kg/injection, schedule: Q## X006 (ip), vehicle: other): 129 % of control | T/C (dose: 115.8 mg/kg/injection, schedule: Q## X006 (ip), vehicle: saline): 135 % of control | T/C (dose: 128.0 mg/kg/injection, schedule: Q01DX001 (ip), vehicle: other): 98 [6 of 10 alive], 108 (2×), 123 % of control | T/C (dose: 128.0 mg/kg/injection, schedule: Q01DX001 (ip), vehicle: saline): 104 [5 of 10 alive], 105, 119, 120 [9 of 10 alive], 133 % of control | T/C (dose: 128.0 mg/kg/injection, schedule: Q01DX001 (oral), vehicle: saline): 91 [1 of 8 alive], 100 [9 of 10 alive] (2×), 102, 108 % of control | survivor count (dose: 128.0 mg/kg/injection, schedule: Q01DX005 (ip), vehicle: other): 9 of 10 | survivor count (dose: 128.0 mg/kg/injection, schedule: Q01DX005 (ip), vehicle: saline): 9 of 10 | survivor count (dose: 128.0 mg/kg/injection, schedule: Q01DX005 (oral), vehicle: other): 10 of 10 | T/C (dose: 128.0 mg/kg/injection, schedule: Q## X006 (ip), vehicle: other): 139 % of control | T/C [1]: 89, 101, 114 % of control [7 of 10 alive] | survivor count [1]: 7 of 10 | T/C (dose: 256.0 mg/kg/injection, schedule: Q01DX001 (ip), vehicle: saline): 100 [6 of 8 alive], 102, 104 [6 of 10 alive], 109, 113 % of control [9 of 10 alive] | T/C (dose: 256.0 mg/kg/injection, schedule: Q01DX001 (oral), vehicle: saline): 96, 103 [8 of 10 alive], 104 [4 of 8 alive], 105, 109 % of control | survivor count (dose: 256.0 mg/kg/injection, schedule: Q01DX005 (ip), vehicle: other): 0 of 10 | survivor count (dose: 256.0 mg/kg/injection, schedule: Q01DX005 (ip), vehicle: saline): 0 of 10 | T/C [2]: 127 % of control | survivor count [2]: 1 of 10 | survivor count (dose: 256.0 mg/kg/injection, schedule: Q#A X002 (ip), vehicle: saline): 0 of 10 | T/C [3]: 106 and 109 % of control [5 of 10 alive] | survivor count [3]: 5 of 10 and 7 of 10 | survivor count (dose: 512.0 mg/kg/injection, schedule: Q01DX001 (ip), vehicle: saline): 1 of 10, 2 of 10, 6 of 10 | T/C (dose: 512.0 mg/kg/injection, schedule: Q01DX001 (oral), vehicle: saline): 91 [9 of 10 alive], 96 [4 of 10 alive], 98 [9 of 10 alive], 100, 112 % of control [8 of 10 alive] | survivor count (dose: 512.0 mg/kg/injection, schedule: Q01DX005 (oral), vehicle: other): 10 of 10 | survivor count (dose: 512.0 mg/kg/injection, schedule: Q## X006 (ip), vehicle: other): 0 of 10 and 10 of 10 | survivor count (dose: 1024.0 mg/kg/injection, schedule: Q01DX001 (ip), vehicle: other): 0 of 10 and 1 of 10 | T/C (dose: 1024.0 mg/kg/injection, schedule: Q01DX001 (oral), vehicle: saline): 96 [4 of 10 alive], 104 (2×), 113, 116 % of control [8 of 10 alive] | survivor count (dose: 1024.0 mg/kg/injection, schedule: Q## X006 (ip), vehicle: other): 1 of 10 and 3 of 10

OCCN1CCN(CC/C=C2/c3ccccc3Sc3ccc(C(F)(F)F)cc32)CC1
survivor count (dose: 50.0 mg/kg/injection, schedule: Q04DX003 (ip), vehicle: saline): 8 of 10 | survivor count (dose: 100.0 mg/kg/injection, schedule: Q04DX003 (ip), vehicle: saline): 3 of 10

Cc1[nH]c(=O)[nH]c(=O)c1N(CCF)CCCl
T/C (dose: 2.0 mg/kg/injection, schedule: Q01DX005 (ip), vehicle: Klucel (hydroxypropylcellulose) (HPC)): 103, 104, 106, 113 % of control | T/C (dose: 4.0 mg/kg/injection, schedule: Q01DX005 (ip), vehicle: Klucel (hydroxypropylcellulose) (HPC)): 97, 100, 101, 107, 111 % of control | T/C (dose: 8.0 mg/kg/injection, schedule: Q01DX005 (ip), vehicle: Klucel (hydroxypropylcellulose) (HPC)): 100, 105, 110, 111, 269 % of control [9 of 10 alive] | T/C (dose: 16.0 mg/kg/injection, schedule: Q01DX001 (ip), vehicle: Klucel (hydroxypropylcellulose) (HPC)): 125 % of control | T/C (dose: 16.0 mg/kg/injection, schedule: Q01DX005 (ip), vehicle: Klucel (hydroxypropylcellulose) (HPC)): 99, 102, 104, 106, 269 % of control | survivor count (dose: 16.0 mg/kg/injection, schedule: Q## X006 (ip), vehicle: Klucel (hydroxypropylcellulose) (HPC)): 9 of 10 | T/C [4]: 108 and 112 % of control | survivor count [4]: 9 of 10 and 10 of 10 | survivor count (dose: 32.0 mg/kg/injection, schedule: Q01DX005 (ip), vehicle: saline with Tween-80): 7 of 10 and 8 of 10 | survivor count (dose: 32.0 mg/kg/injection, schedule: Q## X006 (ip), vehicle: Klucel (hydroxypropylcellulose) (HPC)): 5 of 10 | survivor count (dose: 64.0 mg/kg/injection, schedule: Q01DX001 (ip), vehicle: Klucel (hydroxypropylcellulose) (HPC)): 5 of 10 | T/C [5]: 119 % of control | survivor count [5]: 0 of 10 and 4 of 10 | survivor count (dose: 64.0 mg/kg/injection, schedule: Q01DX005 (ip), vehicle: saline with Tween-80): 0 of 10 and 5 of 10 | survivor count (dose: 64.0 mg/kg/injection, schedule: Q01DX005 (oral), vehicle: Klucel (hydroxypropylcellulose) (HPC)): 7 of 10 | survivor count (dose: 64.0 mg/kg/injection, schedule: Q## X006 (ip), vehicle: Klucel (hydroxypropylcellulose) (HPC)): 1 of 10 | survivor count (dose: 64.0 mg/kg/injection, schedule: Q#A X002 (ip), vehicle: Klucel (hydroxypropylcellulose) (HPC)): 0 of 10 | survivor count (dose: 128.0 mg/kg/injection, schedule: Q01DX001 (ip), vehicle: Klucel (hydroxypropylcellulose) (HPC)): 0 of 10 and 3 of 10 | survivor count (dose: 128.0 mg/kg/injection, schedule: Q01DX001 (oral), vehicle: Klucel (hydroxypropylcellulose) (HPC)): 3 of 10 | survivor count (dose: 128.0 mg/kg/injection, schedule: Q01DX005 (oral), vehicle: Klucel (hydroxypropylcellulose) (HPC)): 0 of 10 | survivor count (dose: 128.0 mg/kg/injection, schedule: Q#A X002 (ip), vehicle: Klucel (hydroxypropylcellulose) (HPC)): 0 of 10 | survivor count (dose: 256.0 mg/kg/injection, schedule: Q01DX001 (ip), vehicle: Klucel (hydroxypropylcellulose) (HPC)): 0 of 10 and 1 of 10 | survivor count (dose: 256.0 mg/kg/injection, schedule: Q01DX001 (oral), vehicle: Klucel (hydroxypropylcellulose) (HPC)): 3 of 10 | survivor count (dose: 256.0 mg/kg/injection, schedule: Q01DX005 (oral), vehicle: Klucel (hydroxypropylcellulose) (HPC)): 0 of 10 | survivor count (dose: 512.0 mg/kg/injection, schedule: Q01DX001 (oral), vehicle: Klucel (hydroxypropylcellulose) (HPC)): 0 of 10 | survivor count (dose: 1024.0 mg/kg/injection, schedule: Q01DX001 (oral), vehicle: Klucel (hydroxypropylcellulose) (HPC)): 0 of 10

CS(C)=O
survivor count (dose: 3.0 grams/kg/injection, schedule: Q01DX005 (ip), vehicle: saline): 10 of 10

c1ccc([C@H]2CN3CCSC3=N2)cc1
survivor count (dose: 40.0 mg/kg/injection, schedule: Q01DX009 (ip), vehicle: saline): 5 of 10 | survivor count (dose: 80.0 mg/kg/injection, schedule: Q01DX005 (ip), vehicle: saline): 0 of 10
